Assay results published in PubChem BioAssay AID1487 (National Center for Advancing Translational Sciences (NCATS), 2009).
This is one part of the list. These are further read-outs of the screen, such as a control signal, another cell line or another target. No call is given for them. The list favours compounds with an active or inconclusive main result. Words in brackets tell the shape of the fitted curve; partial curves, single points and poor fits give uncertain potencies.

Assay: qHTS Assay for Modulators of Lamin A Splicing
Conditions: HeLa LMNA splicing GFP/RFP minigene ratio, 48 h
In short: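 Read-out is the ratio of GFP to DsRed2 object intensity, acquired by 488 nm laser-scanning cytometry on HeLa lamin A-EGFP minigene reporter cells. Compound incubation 48 hrs at 37 °C in Opti-MEM with 2% FBS; DMSO 0.5% final.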

[1] = measured here: GFP splicing reporter channel
[2] = measured here: RFP viability control channel

| SMILES | AC50 [1] | AC50 [2] |
| --- | --- | --- |
| COc1ccc(N2CCN(C(=O)c3oc4ccccc4c3C)CC2)cc1 | 0.794 µM [rising, single point] | 0.0562 µM [rising, full curve, poor fit] |
| CCOC(=O)c1[nH]c(C)c(C(=O)Nc2ccc(C)c(F)c2)c1C |  | 11.2 µM [rising, partial curve] |
| CC1=CCC(C(C)(C)O)CC1 (stereo not given) | 0.0562 µM [falling, full curve, poor fit] | 0.00355 µM [falling, full curve, poor fit] |
| CSc1nc(Cl)c(Cc2ccc(OC(C)C)cc2)c(N2CCOCC2)n1 | 11.2 µM [falling, single point] |  |
| COc1ccc(C(=O)/C=C\c2ccc(NC(=O)c3cccs3)cc2)cc1 | 14.1 µM [falling, partial curve] | 12.6 µM [falling, partial curve] |
| COc1ccc(NC(=O)C(C(C)C)N2Cc3ccccc3C2=O)cc1 (stereo not given) |  | 11.2 µM [rising, single point] |
| CCCCc1nn2c(=O)cc(COC(=O)c3ccccc3C)nc2s1 | 0.00447 µM [falling, full curve, poor fit] | 0.00501 µM [falling, full curve, poor fit] |
| O=C(CSc1nnnn1-c1ccc(Cl)cc1)Nc1cccnc1Cl | 14.1 µM [rising, single point] | 22.4 µM [rising, single point] |
| CC(=O)Nc1nc2c(s1)C(=O)NCCC2 | 1.58 µM [rising, partial curve] |  |
| COc1ccc(C(=O)C(C)Oc2cccc(NC(=O)c3cccc([N+](=O)[O-])c3)c2)cc1 (stereo not given) | 20 µM [rising, single point] | 28.2 µM [rising, single point] |
| CCOc1ccc(S(=O)(=O)NCc2ccc(OC)cc2)c2cccnc12 | 25.1 µM [rising, single point] | 31.6 µM [rising, single point] |
| CC(C)CCC[C@@H](C)[C@H]1CC[C@H]2[C@@H]3CC=C4C[C@@H](O)CC[C@]4(C)[C@H]3CC[C@]12C | 2.82 µM [falling, full curve] | 6.31 µM [falling, partial curve, poor fit] |
| Cc1cccc(N2CCN(C(=O)c3cc4ccc5cccnc5c4[nH]3)CC2C)c1 (stereo not given) |  | 0.224 µM [rising, partial curve, poor fit] |
| Cc1cccc(NS(=O)(=O)c2cc(C(=O)OC(C)C(=O)NCc3ccc4c(c3)OCO4)ccc2C)c1 (stereo not given) |  | 14.1 µM [rising, single point] |
| CCCCCCn1ccc(=N)cc1 | 8.91 µM [rising, partial curve] | 7.08 µM [rising, full curve] |
| Cc1ccc(NC(=O)C(NC2CCCc3ccccc32)c2ccccc2)cc1Cl (stereo not given) |  | 22.4 µM [rising, single point] |
| CCOc1ccc(-c2nc(C#N)c(N3CCCCCC3)o2)cc1 | 35.5 µM [rising, single point] | 22.4 µM [rising, partial curve, poor fit] |
| COc1ccc(CNC(=O)c2ccc(Cn3nc(C)c([N+](=O)[O-])c3C)o2)cc1 | 5.62 µM [falling, single point] | 3.16 µM [falling, single point] |
| CC(C)Oc1cc(NC(=O)CS(=O)CC(=O)Nc2cccc(C(F)(F)F)c2)c(Cl)cc1Cl (stereo not given) | 35.5 µM [falling, single point] | 31.6 µM [falling, single point] |
| Cc1ccccc1NC(=O)N1CCN(C/C=C/c2ccccc2)CC1 |  | 3.55 µM [rising, partial curve, poor fit] |
| O=C(/C=C/c1ccccc1)OCc1ccccc1 |  | 0.0355 µM [falling, full curve, poor fit] |
| COc1ccc(CC(=O)NCc2nn(-c3ccccc3)nc2C)cc1OC |  | 0.00398 µM [falling, full curve, poor fit] |
| CCc1ccccc1N(CC)C(=O)C1CCN(c2ncnc3c2nc2n3CCCCC2)CC1 | 35.5 µM [rising, partial curve] | 35.5 µM [rising, partial curve] |
| CCCCCCC(=O)N/N=C1\CCCc2ccccc21 |  | 35.5 µM [rising, single point] |
| O=C(CCC(=O)N1CCN(S(=O)(=O)c2ccc(Cl)cc2)CC1)Nc1ccc(Cl)cc1Cl | 10 µM [rising, partial curve] | 11.2 µM [rising, single point] |
| CCCCNC(=O)CN1CCN(c2ncc(NC(=O)c3ccc(Cl)cc3)cc2C(=O)O)CC1 |  | 20 µM [falling, single point] |
| Nc1ccc2nc(Cc3ccccc3)[nH]c2c1 | 14.1 µM [falling, single point] |  |

One compound at a time, from the list above. Values in the order: AC50 [1]	AC50 [2]
CCOc1ccc(S(=O)(=O)NCc2ccc(OC)cc2)c2cccnc12 in the list: 25.1 µM [rising, single point]	31.6 µM [rising, single point]
CCCCc1nn2c(=O)cc(COC(=O)c3ccccc3C)nc2s1 in the list: 0.00447 µM [falling, full curve, poor fit]	0.00501 µM [falling, full curve, poor fit]
CCCCCCn1ccc(=N)cc1 in the list: 8.91 µM [rising, partial curve]	7.08 µM [rising, full curve]

Next part

| SMILES | AC50 [1] | AC50 [2] |
| --- | --- | --- |
| COc1ccc(N(CC(=O)NCCSc2ccccc2)S(C)(=O)=O)cc1 | 0.00794 µM [falling, full curve, poor fit] | 3.55 µM [falling, partial curve, poor fit] |
| O=C(Nc1sc2c(c1C(=O)O)CCCCC2)c1cccs1 |  | 35.5 µM [rising, single point] |
| CCCOc1ccc(CCc2n[nH]c(=S)n2Cc2ccccc2)cc1 |  | 17.8 µM [rising, single point] |
| O=C(c1ccco1)N1CCCC(c2nc(-c3ccc(S(=O)(=O)NCc4ccccc4)cc3)no2)C1 (stereo not given) | 5.62 µM [rising, full curve] | 3.55 µM [rising, full curve] |
| CCCNC(=O)OC[C@H]1O[C@H](CCO/N=C/[C@@H](NS(=O)(=O)c2ccc(C)cc2)[C@H](C)/C=C/CC(=O)OC)C=C[C@@H]1Oc1ccc(OC)cc1 | 7.08 µM [rising, partial curve] | 12.6 µM [rising, partial curve] |
| COc1cccc(CNC(=O)c2cc3ccc4cccnc4c3[nH]2)c1 |  | 11.2 µM [falling, partial curve] |
| COc1cccc2cc(C(=O)OCC(=O)NCc3ccc4c(c3)OCO4)c(=O)oc12 | 0.631 µM [rising, full curve] |  |
| CC[C@H](C)C(=O)O[C@H]1CCC=C2C=C[C@H](C)[C@H](CC[C@@H]3C[C@H](O)CC(=O)O3)C21 (stereo not given in full) | 35.5 µM [falling, single point] | 11.2 µM [falling, partial curve] |
| Nc1ccc2nc(-c3ccccn3)[nH]c2c1 |  | 12.6 µM [rising, single point] |
| COc1ccc(N/C=C(\C#N)c2nc3ccccc3n2C)c(OC)c1 |  | 31.6 µM [rising, partial curve, poor fit] |
| O=C(Nc1ccc2c(c1)OCO2)N1CCN(c2cccc(C(F)(F)F)c2)CC1 |  | 22.4 µM [rising, partial curve] |
| Cc1[nH]c2ccccc2c1C(=O)C(=O)N1CC=C(c2ccccc2)CC1 |  | 31.6 µM [rising, single point] |
| O=C(Cn1c(=O)n2nc(-c3cccc(F)c3)nc2c2ccccc21)N1CCN(c2ccccc2F)CC1 | 0.0282 µM [falling, partial curve, poor fit] |  |
| Cc1oc2ccc(O)cc2c1C(=O)c1ccc([N+](=O)[O-])cc1 | 14.1 µM [rising, partial curve] | 12.6 µM [rising, partial curve] |
| OCC1OC(n2cnc3c(Cl)nc(Cl)nc32)C(O)C1O (stereo not given) | 11.2 µM [falling, partial curve] | 3.55 µM [falling, partial curve] |
| COc1ccc(OC)c(NC(=O)c2c(C)oc3ncnc(N4CCOCC4)c23)c1 |  | 35.5 µM [rising, single point] |
| COc1cc2c(cc1OC)CN(c1nc(CN3CCOCC3)nc3sc4c(c13)CCC(C)C4)CC2 (stereo not given) |  | 14.1 µM [rising, single point] |
| CC(=O)NC1=NN(C(C)=O)C(C)(c2cccc([N+](=O)[O-])c2)S1 (stereo not given) |  | 0.1 µM [falling, full curve, poor fit] |
| CN(C)S(=O)(=O)c1ccc2oc(SCC(=O)Nc3ccccc3F)nc2c1 | 0.316 µM [rising, full curve, poor fit] | 0.00355 µM [rising, full curve, poor fit] |
| COc1ccc(/C=C2/SC(=O)N(CCCCCC(=O)Nc3ccccc3C(=O)O)C2=S)cc1 |  | 14.1 µM [rising, partial curve, poor fit] |
| CC(C)c1ccc(CNC(=O)CSCC(=O)Nc2ccc3ccccc3c2)cc1 |  | 35.5 µM [rising, single point] |
| NC(=O)C1CCN(C(=S)NCCc2ccccc2)CC1 | 0.0398 µM [falling, full curve, poor fit] |  |
| CC(Sc1nc2c([nH]c3ccccc32)c(=O)n1-c1ccccc1)c1ccccc1 (stereo not given) | 35.5 µM [falling, single point] | 35.5 µM [falling, single point] |
| CC1(C)C(=O)OC(C(=O)c2ccc(Cl)cc2)C(C)(C)C1=O (stereo not given) |  | 22.4 µM [falling, partial curve, poor fit] |
| CCOCc1nnc(NC(=O)c2ccc(NC(C)=O)cc2)s1 | 17.8 µM [rising, single point] |  |
| Cc1ccc(-c2cc(C(=O)NC3=NCCS3)c3cc(Br)ccc3n2)o1 |  | 17.8 µM [rising, single point] |
